Reference: PubChem BioAssay (NCATS)
The shares of active, inactive and inconclusive entries below differ from those in the screen. Potencies beside an inconclusive call are fits to weak or partial responses and may not hold up. The source made the active and inactive calls. Calls follow the shape of the dose curve; as a rule, active = well fitted cell-killing curve with a large enough effect; inconclusive = small, poorly fitted or top-dose-only effect, or effect the other way; inactive = no such curve, though single readings can be large or run the other way.

Tests used:
[1] = Quantitative High-Throughput drug screen in 47 multiple myeloma cell lines against the NCATS MIPE library collection: L363_DSMZ cell viability assay (AID 1918984); conditions: L363 myeloma viability, CellTiter-Glo ATP luminescence, 48 h; viability (% of control): at 45.8 µM (top of the series); also: nearly all actives have a fitted effect of over 40% in size
Summary of the method: (§1)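 Inhibition of viability over 48 h was scored by ATP content (CellTiter-Glo) in 500-cell wells. Zero and full viability were defined by media-only and DMSO-only wells.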

[2] = Quantitative High-Throughput drug screen in 47 multiple myeloma cell lines against the NCATS MIPE library collection: OCIMY7_PLB cell viability assay (AID 1918987); conditions: OCI-MY7 myeloma viability, CellTiter-Glo ATP, 48 h; viability (% of DMSO): at 45.8 µM (top of the series); also: nearly all actives have a fitted effect of over 65% in size
Summary of the method: as §1

[3] = Quantitative High-Throughput drug screen in 47 multiple myeloma cell lines against the NCATS MIPE library collection: OCIMY5_PLB cell viability assay (AID 1918988); conditions: OCI-MY5 myeloma viability, ATP luminescence, 48 h; viability, % of control: at 45.8 µM (top of the series); also: nearly all actives have a fitted effect of over 65% in size;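 as to viability, % of control: 100% = DMSO-treated wells and 0% = wells with media alone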
Summary of the method: as §1

[4] = Quantitative High-Throughput drug screen in 47 multiple myeloma cell lines against the NCATS MIPE library collection: OPM1_PLB cell viability assay (AID 1918989); also: nearly all actives have a fitted effect of over 40% in size;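 as to viability (% of control): 100% = DMSO-only wells and 0% = media-only wells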
Summary of the method: as §1

[5] = Quantitative High-Throughput drug screen in 47 multiple myeloma cell lines against the NCATS MIPE library collection: SKMM1_PLB cell viability assay (AID 1919863); conditions: SKMM1 myeloma viability, CellTiter-Glo ATP, 48 h; viability: stronger effect = lower value; also: nearly all actives have a fitted effect of over 35% in size
Summary of the method: as §1

[6] = Quantitative High-Throughput drug screen in 47 multiple myeloma cell lines against the NCATS MIPE library collection: XG6_PLB cell viability assay (AID 1919865); conditions: XG6 myeloma viability, CellTiter-Glo ATP luminescence, 48 h; viability (% of control): at 45.8 µM (top of the series); also: nearly all actives have a fitted effect of over 40% in size;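 as to viability (% of control): 100% = DMSO-only wells and 0% = media-only wells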
Summary of the method: as §1

[7] = Quantitative High-Throughput drug screen in 47 multiple myeloma cell lines against the NCATS MIPE library collection: VP6_DJ cell viability assay (AID 1919867); conditions: ATP luminescence, 48 h; viability (% of DMSO): at 45.8 µM (top of the series); also: nearly all actives have a fitted effect of over 40% in size;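 as to viability (% of DMSO): 100% = DMSO-only wells and 0% = wells with media alone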
Summary of the method: as §1

[8] = Quantitative High-Throughput drug screen in 47 multiple myeloma cell lines against the NCATS MIPE library collection: U266_ATCC cell viability assay (AID 1919864); also: nearly all actives have a fitted effect of over 35% in size
Summary of the method: as §1

[9] = Quantitative High-Throughput drug screen in 47 multiple myeloma cell lines against the NCATS MIPE library collection: XG1_PLB cell viability assay (AID 1919866); also: nearly all actives have a fitted effect of over 35% in size
Summary of the method: as §1
Potency is read from the fitted curve at half-maximal effect.

O=C(c1cncc(Br)c1)N1CCC(N2CCCC2)CC1
inconclusive: Potency [3] 0.105 µM [cytotoxic, full curve, poor fit] | Potency [4] 0.0935 µM [cytotoxic, full curve, poor fit] | Potency [5] 18.7 µM [cytotoxic, partial curve, poor fit]
inactive: Potency [1] | Potency [2] | Potency [6] | Potency [7]

C=C(C)[C@@H]1CC[C@]2(C)CC[C@]3(C)[C@H](CC[C@@H]4[C@@]5(C)CC[C@H](O)C(C)(C)[C@H]5CC[C@]43C)[C@@H]12
inconclusive: Potency [1] 7.43 µM [cytotoxic, partial curve, poor fit] | Potency [2] 33.2 µM [cytotoxic, partial curve, poor fit] | Potency [5] 0.0662 µM [rising, full curve, poor fit]
inactive: Potency [3] | Potency [4] | Potency [7]

O=C(Nc1ccccc1Br)N[C@@H]1CCN(c2ccc(C(F)(F)F)cn2)C1
inactive: Potency [1]
inconclusive: Potency [2] 37.2 µM [cytotoxic, single point] | Potency [3] 83.3 µM [cytotoxic, partial curve, poor fit] | Potency [4] 23.5 µM [cytotoxic, single point] | Potency [5] 20.9 µM [cytotoxic, partial curve, poor fit] | Potency [8] 18.7 µM [cytotoxic, single point] | Potency [9] 33.2 µM [cytotoxic, single point]

CN(C)CCC=C1c2ccccc2COc2ccc(CC(=O)O)cc21
inconclusive: Potency [1] 0.105 µM [rising, full curve, poor fit] | Potency [2] 29.6 µM [cytotoxic, partial curve, poor fit] | Potency [3] 3.32 µM [rising, full curve, poor fit] | Potency [8] 0.001 µM | Potency [6] 33.2 µM [cytotoxic, single point] | Potency [7] 23.5 µM [cytotoxic, single point]
inactive: Potency [4] | viability [5] 114%

NC(=O)NN=Cc1ccc([N+](=O)[O-])o1
active: Potency [1] 23.5 µM
inconclusive: Potency [2] 18.7 µM [cytotoxic, partial curve, poor fit] | Potency [3] 37.2 µM [cytotoxic, single point] | Potency [4] 33.2 µM [cytotoxic, single point] | Potency [8] 0.148 µM [rising, full curve, poor fit] | Potency [6] 11.8 µM [cytotoxic, partial curve, poor fit] | Potency [9] 33.2 µM [cytotoxic, single point]
inactive: viability [5] 122%

Cc1cnc(C(=O)O)c[n+]1[O-]
inconclusive: Potency [2] 10.5 µM [cytotoxic, full curve, poor fit] | Potency [3] 2.96 µM [cytotoxic, partial curve, poor fit] | Potency [5] 0.418 µM [cytotoxic, partial curve, poor fit] | Potency [7] 0.0037 µM [cytotoxic, full curve, poor fit]
inactive: Potency [1] | Potency [6]

5 compounds out of the list, arranged by number of heavy atoms, smallest number first:
Cc1cnc(C(=O)O)c[n+]1[O-]
inconclusive: Potency [2] 10.5 µM [cytotoxic, full curve, poor fit] | Potency [3] 2.96 µM [cytotoxic, partial curve, poor fit] | Potency [5] 0.418 µM [cytotoxic, partial curve, poor fit] | Potency [7] 0.0037 µM [cytotoxic, full curve, poor fit]
inactive: Potency [1] | Potency [6]

NC(=O)NN=Cc1ccc([N+](=O)[O-])o1
active: Potency [1] 23.5 µM
inconclusive: Potency [2] 18.7 µM [cytotoxic, partial curve, poor fit] | Potency [3] 37.2 µM [cytotoxic, single point] | Potency [4] 33.2 µM [cytotoxic, single point] | Potency [8] 0.148 µM [rising, full curve, poor fit] | Potency [6] 11.8 µM [cytotoxic, partial curve, poor fit] | Potency [9] 33.2 µM [cytotoxic, single point]
inactive: viability [5] 122%

CN(C)CCC=C1c2ccccc2COc2ccc(CC(=O)O)cc21
inconclusive: Potency [1] 0.105 µM [rising, full curve, poor fit] | Potency [2] 29.6 µM [cytotoxic, partial curve, poor fit] | Potency [3] 3.32 µM [rising, full curve, poor fit] | Potency [8] 0.001 µM | Potency [6] 33.2 µM [cytotoxic, single point] | Potency [7] 23.5 µM [cytotoxic, single point]
inactive: Potency [4] | viability [5] 114%

O=C(Nc1ccccc1Br)N[C@@H]1CCN(c2ccc(C(F)(F)F)cn2)C1
inactive: Potency [1]
inconclusive: Potency [2] 37.2 µM [cytotoxic, single point] | Potency [3] 83.3 µM [cytotoxic, partial curve, poor fit] | Potency [4] 23.5 µM [cytotoxic, single point] | Potency [5] 20.9 µM [cytotoxic, partial curve, poor fit] | Potency [8] 18.7 µM [cytotoxic, single point] | Potency [9] 33.2 µM [cytotoxic, single point]

C=C(C)[C@@H]1CC[C@]2(C)CC[C@]3(C)[C@H](CC[C@@H]4[C@@]5(C)CC[C@H](O)C(C)(C)[C@H]5CC[C@]43C)[C@@H]12
inconclusive: Potency [1] 7.43 µM [cytotoxic, partial curve, poor fit] | Potency [2] 33.2 µM [cytotoxic, partial curve, poor fit] | Potency [5] 0.0662 µM [rising, full curve, poor fit]
inactive: Potency [3] | Potency [4] | Potency [7]

Continued.

CC[C@H]1OC(=O)[C@H](C)[C@@H](O[C@H]2C[C@@](C)(OC)[C@@H](O)[C@H](C)O2)[C@H](C)[C@@H](O[C@@H]2O[C@H](C)C[C@H](N(C)C)[C@H]2O)[C@](C)(O)C[C@H](C)C(=NOCOCCOC)[C@H](C)[C@@H](O)[C@]1(C)O
inconclusive: Potency [1] 0.0105 µM [cytotoxic, full curve, poor fit] | Potency [2] 20.9 µM [cytotoxic, partial curve, poor fit] | Potency [5] 26.4 µM [cytotoxic, single point] | Potency [8] 23.5 µM [cytotoxic, single point] | Potency [7] 0.0526 µM [rising, full curve, poor fit]
inactive: Potency [4]

O=c1[nH]cnc2c1ncn2[C@H]1CC[C@@H](CO)O1
inactive: Potency [1] | viability [5] 151% | Potency [8] | Potency [6]
inconclusive: Potency [2] 0.105 µM [rising, full curve, poor fit] | Potency [4] 10.5 µM [rising, single point] | Potency [7] 0.0026 µM [cytotoxic, full curve, poor fit]

CCN1C[C@H](C)n2c(c(O)c3c(=O)n(Cc4ccc(F)c(Cl)c4)nc(C(=O)NC)c32)C1=O
inconclusive: Potency [2] 11.8 µM [rising, partial curve, poor fit] | Potency [3] 37.2 µM [cytotoxic, single point] | Potency [5] 5.26 µM [cytotoxic, full curve, poor fit] | Potency [9] 33.2 µM [cytotoxic, single point] | Potency [7] 0.0047 µM [rising, full curve]
inactive: Potency [1]

Cn1c(=O)c(Oc2ccc(F)cc2F)cc2cnc(NC3CCOCC3)nc21
inconclusive: Potency [1] 11.8 µM [cytotoxic, single point] | Potency [2] 4.18 µM [cytotoxic, partial curve, poor fit] | Potency [4] 16.6 µM [cytotoxic, partial curve, poor fit] | Potency [6] 18.7 µM [cytotoxic, partial curve] | Potency [9] 18.7 µM [cytotoxic, partial curve, poor fit] | Potency [7] 20.9 µM [cytotoxic, partial curve, poor fit]
inactive: Potency [8]

COc1cc([C@H]2Oc3cc([C@H]4Oc5cc(O)cc(O)c5C(=O)[C@H]4O)ccc3O[C@H]2CO)ccc1O
active: Potency [2] 8.33 µM | Potency [4] 14.8 µM | Potency [6] 14.8 µM | Potency [9] 16.6 µM
inconclusive: Potency [8] 6.62 µM [cytotoxic, partial curve, poor fit]
inactive: Potency [1]

Clc1ccc(C(Cn2ccnc2)OCc2ccsc2Cl)c(Cl)c1 (stereo not drawn)
inconclusive: Potency [1] 26.4 µM [cytotoxic, single point] | Potency [2] 37.2 µM [cytotoxic, single point] | Potency [4] 33.2 µM [cytotoxic, single point] | Potency [8] 37.2 µM [cytotoxic, single point] | Potency [7] 37.2 µM [cytotoxic, single point]

O=C(O)C1=CC(O)C(O)[C@H](O)C1 (stereo partly drawn)
inconclusive: Potency [1] 0.187 µM [cytotoxic, full curve, poor fit] | Potency [2] 0.0209 µM [rising, full curve, poor fit] | Potency [3] 13.2 µM [cytotoxic, partial curve, poor fit] | Potency [7] 18.7 µM [cytotoxic, partial curve, poor fit]
inactive: viability [5] 118% | Potency [8] | Potency [9]

CC(=O)OCC(CCn1cnc2cnc(N)nc21)COC(C)=O
inactive: Potency [1] | Potency [3] | Potency [9] | Potency [7]
inconclusive: Potency [2] 0.001 µM [cytotoxic] | Potency [5] 0.0187 µM [rising, full curve, poor fit] | Potency [8] 0.332 µM [rising, full curve, poor fit]

CCC1=C(C)CN(C(=O)NCCc2ccc(S(=O)(=O)NC(=O)NC3CCC(C)CC3)cc2)C1=O (stereo not drawn)
inconclusive: Potency [2] 1.18 µM [cytotoxic, full curve, poor fit] | Potency [5] 0.0469 µM [rising, full curve, poor fit] | Potency [6] 14.8 µM [cytotoxic, partial curve, poor fit]
inactive: Potency [1] | Potency [3] | Potency [7]

COC(=O)C[C@](O)(CCCC(C)(C)O)C(=O)O[C@@H]1C(OC)=C[C@]23CCCN2CCc2cc4c(cc2[C@H]13)OCO4
inconclusive: Potency [1] 2.96 µM [cytotoxic, partial curve, poor fit] | Potency [3] 9.35 µM [cytotoxic, partial curve, poor fit] | Potency [5] 5.9 µM [cytotoxic, partial curve, poor fit] | Potency [8] 20.9 µM [cytotoxic, partial curve, poor fit] | Potency [7] 23.5 µM [cytotoxic, single point]
inactive: Potency [2] | Potency [6] | Potency [9]

O=P(O)(O)C(O)(Cn1ccnc1)P(=O)(O)O
inconclusive: Potency [2] 0.0057 µM [rising, full curve, poor fit] | Potency [8] 0.0041 µM [rising, full curve, poor fit] | Potency [9] 5.75 µM [cytotoxic, partial curve, poor fit]
inactive: Potency [1] | Potency [3] | viability [5] 138% | Potency [6]
active: Potency [7] 6.45 µM

CC(C)C[C@H](CC(=O)O)C(=O)N[C@@H](Cc1c[nH]c2ccccc12)C(=O)N[C@@H](C)c1ccccc1
inconclusive: Potency [2] 0.0021 µM [rising, full curve, poor fit] | Potency [3] 0.0118 µM [rising, full curve, poor fit] | Potency [5] 0.0264 µM [rising, full curve, poor fit] | Potency [8] 0.0166 µM [rising, full curve, poor fit]
inactive: Potency [1] | Potency [6] | Potency [9] | Potency [7]
